No constants are given. Whether binding was seen depends on the method and setting. Binding seen in cells or lysates may run through a third protein. Here binding means that the protein was enriched with, or labelled near, the bait; the list need not be complete.

The chains behind the UniProt entries cited, without tags or fusion partners. Where a name states a change or a piece, a line headed by the entry shows the natural chain unless it says otherwise.
UniProt P31977: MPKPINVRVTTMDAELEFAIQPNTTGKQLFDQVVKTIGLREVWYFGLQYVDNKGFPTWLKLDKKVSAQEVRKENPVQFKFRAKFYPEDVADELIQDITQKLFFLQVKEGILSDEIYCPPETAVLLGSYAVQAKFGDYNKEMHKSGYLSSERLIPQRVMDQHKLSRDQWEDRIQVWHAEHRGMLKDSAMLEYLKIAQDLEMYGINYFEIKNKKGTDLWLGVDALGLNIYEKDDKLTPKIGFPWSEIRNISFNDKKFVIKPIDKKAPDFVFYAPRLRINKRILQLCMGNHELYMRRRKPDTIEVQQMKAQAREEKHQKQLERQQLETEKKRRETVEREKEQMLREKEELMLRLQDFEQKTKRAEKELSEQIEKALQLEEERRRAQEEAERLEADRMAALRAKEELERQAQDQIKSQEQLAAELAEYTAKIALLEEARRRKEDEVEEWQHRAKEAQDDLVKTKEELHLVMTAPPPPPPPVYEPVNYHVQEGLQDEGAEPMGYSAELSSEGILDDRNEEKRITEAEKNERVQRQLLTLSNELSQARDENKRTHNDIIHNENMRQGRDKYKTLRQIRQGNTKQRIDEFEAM
UniProt A0ACM8Q1Z9: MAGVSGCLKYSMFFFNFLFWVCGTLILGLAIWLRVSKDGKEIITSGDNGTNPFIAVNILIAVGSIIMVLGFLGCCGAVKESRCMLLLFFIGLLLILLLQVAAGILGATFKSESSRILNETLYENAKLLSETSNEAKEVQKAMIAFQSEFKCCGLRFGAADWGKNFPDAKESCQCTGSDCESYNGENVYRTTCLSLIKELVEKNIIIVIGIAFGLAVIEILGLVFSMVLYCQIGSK

This experiment addresses T1, claudin7 (rat (endogenous in ASML)) (UniProt Q9Z1L1).
T1 sequence: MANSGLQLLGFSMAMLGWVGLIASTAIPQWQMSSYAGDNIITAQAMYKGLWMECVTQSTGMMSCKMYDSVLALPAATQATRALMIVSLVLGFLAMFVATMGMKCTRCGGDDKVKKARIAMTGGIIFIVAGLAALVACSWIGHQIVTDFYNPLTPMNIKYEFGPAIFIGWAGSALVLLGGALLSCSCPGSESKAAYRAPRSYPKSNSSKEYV
Nature of the experiment: affinity purification with mass spectrometry + co-IP; ASML-wt and ASML-cld7mP TEX lysed in HEPES buffer/1% Lubrol (mild lysis, 30 min, 4°C), precipitated with anti-cld7 and ProteinG-Sepharose; precipitates blotted with antibodies (Fig. 3B) and analysed by nanoLC-ESI-MS/MS (Fig. 3C).

In the case of CD49c (rat (endogenous in ASML)), the binding entry is “binds”. With ezrin (from UniProt P31977 1-586) the entry was “binds”; with Tspan8 (from UniProt A0ACM8Q1Z9), “binds”.

These data come from paper PMC6775303.
